Measurements as given in US20150307625A1 (Bayer, published 2015).
Residue numbers refer to the chain shown, from its start. These are yes or no findings as the source states them, for the method shown. For some of these results: Binding calls can cover weak binding; strength is not graded here.

Tests used:
activated Factor VII [1] = experiment: direct ELISA, FVIIa coated at 10 ug/ml, Fab at 20 nM, anti-human Fab-HRP, AmplexRed (RFU)
[2] = molecular target: dog activated Protein C (dog); experiment: direct ELISA, Fab at 20 nM
activated Factor IX [3] = experiment: direct ELISA, FIXa coated at 5 ug/ml, Fab at 20 nM, anti-human Fab-HRP, AmplexRed (RFU)
[4] = molecular target: dog activated Protein C (dog); experiment: species aPC ELISA
activated Factor X [5] = experiment: direct ELISA, FXa coated at 10 ug/ml, Fab at 20 nM, anti-human Fab-HRP, AmplexRed (RFU)
[6] = molecular target: dog activated Protein C (dog); experiment: direct ELISA, antigen coated at 100 ng/well, Fab at 20 nM (1 ug/ml), anti-human Fab-HRP, AmplexRed (RFU)
activated Factor VII [7] = experiment: direct ELISA, antigen coated
activated Factor X [8] = experiment: direct ELISA, antigen coated
activated Factor IX [9] = experiment: direct ELISA, antigen coated
[10] = molecular target: rabbit activated Protein C (rabbit); experiment: direct ELISA, hIgG1
[11] = molecular target: dog activated Protein C (dog); experiment: direct ELISA, hIgG1
[12] = molecular target: rabbit activated Protein C (rabbit); experiment: direct ELISA, IgG at 20 nM
[13] = molecular target: dog activated Protein C (dog); experiment: direct ELISA, IgG at 20 nM
[14] = molecular target: rabbit activated Protein C (rabbit); experiment: direct ELISA, antigen coated at 1 ug/ml, IgG at 20 nM, anti-human IgG-HRP, AmplexRed (RFU)
[15] = molecular target: dog activated Protein C (dog); experiment: as above

B1: C7I7 Fab (Fab, V domains shown)
VH: EVQLLESGGGLVQPGGSLRLSCAASGFTFGNHWMTWVRQAPGKGLEWVSGVSWNGSRTHYADSVKGRFTISRDNSKNTLYLQMNSLRAEDTAVYYCALTGRSGWMRFPNWFDPWGQGTLVTVTS
VL: QSVLTQPPSASGTPGQRVTISCTGSSSNIGAGYDVHWYQQLPGTAPKLLIYGNSNRPSGVPDRFSGSKSGTSASLAISGLRSEDEAAYYCSSYVGSDLVVFGGGTKLTVLG
notes: Human Fab (lambda) from a phage library, expressed in E. coli; also called C717
How did the binding (activated Factor VII [1]) turn out when B1 was run?
The binding was “no binding (tested: 20 nM)”.

What about the binding [2] of the same binder?
The binding was “binds”.

What about the binding (activated Factor IX [3]) of the same binder?
Its binding is “no binding (tested: 20 nM)”.

And the binding [4]?
Its binding is “binds”.

And the binding (activated Factor X [5])?
The binding was “no binding (tested: 20 nM)”.

What about the binding [6] of the same binder?
The binding was “binds”.

What about the binding (activated Factor VII [7]) of the same binder?
Its binding is “no binding (tested: 20 nM)”.

What about the binding (activated Factor X [8]) of the same binder?
Its binding is “no binding (tested: 20 nM)”.

And the binding (activated Factor IX [9])?
The binding was “no binding (tested: 20 nM)”.

B2: C7I7 hIgG1 (antibody, V domains shown)
VH: B1 VH
VL: B1 VL
notes: also called C717-IgG
Which binding [10] does the source give for B2 here?
The binding was “binds”.

What about the binding [11] of the same binder?
The binding was “binds”.

And the binding [12]?
The binding was “binds”.

What about the binding [13] of the same binder?
The binding was “binds”.

What about the binding [14] of the same binder?
Its binding is “binds”.

What about the binding [15] of the same binder?
The binding was “binds”.

B3: C25K23 IgG1 (antibody, V domains shown)
VH: B1 VH with G30S, N31S, H32Y, T35S, T123S
VL: QSVLTQPPSASGTPGQRVTISCTGSSSNIGAAYDVHWYQQLPGTAPKLLIYGNNKRPSGVPDRFSGSKSGTSASLAISGLRSEDEADYYCQSYDSSLSGSVFGGGTKLTVLG
notes: the claims call them variable regions; also called C25K23 hIgG; C25K23 hIgG1
B3 was tested. Which binding [10] did it give?
The binding was “binds”.

What about the binding [11] of the same binder?
Its binding is “binds”.

And the binding [12]?
Its binding is “binds”.

And the binding [13]?
The binding was “binds”.

What about the binding [14] of the same binder?
The binding was “binds”.

What about the binding [15] of the same binder?
The binding was “binds”.

B4: C7A23 hIgG1 (antibody, V domains shown)
VH: B1 VH
VL: QSVLTQPPSASGTPGQRVTISCSGSSSNIGNNYVSWYQQLPGTAPKLLIYRNNQRPSGVPDRFSGSKSGTSASLAISGLRSEDEADYYCQSYDSDLSGPYVLFGGGTKLTVLG
notes: also called C7A23-IgG
What does the source list for B4?
binding [10]: binds; binding [11]: binds; binding [12]: binds; binding [13]: binds; binding [14]: binds; binding [15]: binds

B5: C22J13 hIgG1 (antibody, V domains shown)
VH: EVQLLESGGGLVQPGGSLRLSCAASGFTFSSNYMSWVRQAPGKGLEWVAVISYDGSNKYYADSVKGRFTISRDNSKNTLYLQMNSLRAEDTAMYYCALTGRSGWMRFPNWFDPWGQGTLVTVTS
VL: QSVLTQPPSASGTPGQRVTISCSGSDSNIGSNAVNWYQQLPGTAPKLLIYDNNKRPSGVPDRFSGSKSGTSASLAISGLRSEDEADYYCSSYTSSNTVVFGGGTKLTVLG
With B5 as the binder, how does the binding [10] read?
Its binding is “binds”.

What about the binding [12] of the same binder?
The binding was “binds”.

What about the binding [14] of the same binder?
The binding was “binds”.

B6: O3E7 hIgG1 (antibody, V domains shown)
VH: EVQLLESGGGLVQPGGSLRLSCAASGFTFSSYSMNWVRQAPGKGLEWVSAISGSGGSTYYADSVKGRFTISRDNSKNTLYLQMNSLRAEDTAVYYCARDRRVRGIYDAFDMWGQGTLVTVTS
VL: QSVLTQPPSTSGTPGQRVTISCTGSSSNIGAGFDVHWYQQLPGTAPKLLIYGNSNRPSGVPDRFSGSKSGTSASLAISGLRSEDEADYYCATWQDTLTGWMFGGGTKLTVLG
notes: also called O3E7-IgG; 03E7
For B6, which binding [15] is on record?
Its binding is “binds”.

B7: T46P19 Fab (Fab, V domains shown)
VH: EVQLLESGGGLVQPGGSLRLSCAASGFTFSGYGMHWVRQAPGKGLEWVSGINWNGGSTGYADSVKGRFTISRDNSKNTLYLQMNSLRAEDTAVYYCARNRATRSGYYYFDSWGQGTLVTVTS
VL: LTQPPSASGTPGQRVTISCTGSSSNIGAGYDVHWYQQLPGTAPKLLIYGNINRPSGVPDRFSGSKSGTSASLAISGLRSEDEADYYCSSYTRSATLVFGGGTKLTVLG
notes: Human Fab (lambda), expressed in E. coli
What does the source list for B7?
binding (activated Factor VII [1]): no binding (tested: 20 nM); binding (activated Factor IX [3]): no binding (tested: 20 nM); binding (activated Factor X [5]): no binding (tested: 20 nM); binding (activated Factor VII [7]): no binding (tested: 20 nM); binding (activated Factor X [8]): no binding (tested: 20 nM); binding (activated Factor IX [9]): no binding (tested: 20 nM)

B8: R41E3 Fab (Fab, V domains shown)
VH: EVQLLESGGGLVQPGGSLRLSCAASGFTFNNYAMTWVRQAPGKGLEWVSGVSWNGSRTHYADSVKGRFTISRDNSKNTLYLQMNSLRAEDTAVYYCARADSSSAGRWAGSLDYWGQGTLVTVTS
VL: LTQPPSASGTPGQRVTISCSGSSSNIGNNAVNWYQQLPGTAPKLLIYSNNQRPSGVPDRFSGSKSGTSASLAISGLRSEDEADYYCSSYTSSSTHVVFGGGTKLTVLG
notes: as for B7
B8 was tested. Which binding (activated Factor VII [1]) did it give?
Its binding is “no binding (tested: 20 nM)”.

And the binding (activated Factor IX [3])?
The binding was “no binding (tested: 20 nM)”.

And the binding (activated Factor X [5])?
Its binding is “no binding (tested: 20 nM)”.

And the binding (activated Factor VII [7])?
The binding was “no binding (tested: 20 nM)”.

What about the binding (activated Factor X [8]) of the same binder?
The binding was “no binding (tested: 20 nM)”.

And the binding (activated Factor IX [9])?
The binding was “no binding (tested: 20 nM)”.

B9: R41C17 Fab (Fab, V domains shown)
VH: EVQLLESGGGLVQPGGSLRLSCAASGFTFSNYAMSWVRQSPGKGLEWVAVISYDGREKYYSDSVKGRFTISRDNSKNTLYLQMNSLRAEDTAVYYCARDRGRTFDYWGQGTLVTVTS
VL: LTQPPSASGTPGQRVTISCTGSSSNIGAGYVVHWYQQLPGTAPKLLIYRNNHRPSGVPDRFSGSKSGTSASLAISGLRSEDEADYYCAAWDDSLNGRVFGGGTKLTVLG
notes: Human Fab (lambda), expressed in E. coli; also called R4117
For B9, which binding (activated Factor VII [1]) is on record?
The binding was “no binding (tested: 20 nM)”.

And the binding (activated Factor IX [3])?
Its binding is “no binding (tested: 20 nM)”.

What about the binding (activated Factor X [5]) of the same binder?
The binding was “no binding (tested: 20 nM)”.

And the binding (activated Factor VII [7])?
The binding was “no binding (tested: 20 nM)”.

What about the binding (activated Factor X [8]) of the same binder?
The binding was “no binding (tested: 20 nM)”.

What about the binding (activated Factor IX [9]) of the same binder?
Its binding is “no binding (tested: 20 nM)”.

B10: C26B9 Fab (Fab, V domains shown)
VH: EVQLLESGGGLVQPGGSLRLSCAASGFTFSSYGMHWVRQAPGKGLEWVSVIYSGGSTYYADSVKGRFTISRDNSKNTLYLQMNSLRAEDTAVYYCARMGRAFDIWGQGTLVTVTS
VL: QSVLTQPPSASGTPGQRVTISCSGSSSNIRSNTVNWYQQLPGTAPKLLIYGNSNRPSGVPDRFSGSKSGTSASLAISGLRSEDEADYYCQSYDSSLSGDVVFGGGTKLTVLG
notes: Human Fab (lambda) from a phage library, expressed in E. coli
Which results are given for B10?
binding (activated Factor VII [1]): no binding (tested: 20 nM); binding (activated Factor IX [3]): no binding (tested: 20 nM); binding (activated Factor X [5]): no binding (tested: 20 nM); binding (activated Factor VII [7]): no binding (tested: 20 nM); binding (activated Factor X [8]): no binding (tested: 20 nM); binding (activated Factor IX [9]): no binding (tested: 20 nM)

B11: C22J13 Fab (Fab, V domains shown)
VH: B5 VH
VL: B5 VL
notes: as for B10
Which binding (activated Factor VII [1]) does the source give for B11 here?
The binding was “no binding (tested: 20 nM)”.

What about the binding (activated Factor IX [3]) of the same binder?
Its binding is “no binding (tested: 20 nM)”.

And the binding (activated Factor X [5])?
Its binding is “no binding (tested: 20 nM)”.

What about the binding (activated Factor VII [7]) of the same binder?
Its binding is “no binding (tested: 20 nM)”.

What about the binding (activated Factor X [8]) of the same binder?
The binding was “no binding (tested: 20 nM)”.

And the binding (activated Factor IX [9])?
Its binding is “no binding (tested: 20 nM)”.
